# Data: patent US10273241B2 (President and Fellows of Harvard College, priority 2013, dated 2019)
# Some results were stated once for a whole list of compounds, not compound by compound.
# Tested on: MOLM-14 cells overexpressing FLAG-CDK8 W105M or FLAG-CDK19 W105M
# Assay: Growth inhibition of cells overexpressing FLAG-CDK8 W105M or FLAG-CDK19 W105M
# Format: cell-based, human
# Details: fresh compound added on day 3
substance,measurement,value
cortistatin A [CA],desensitization to growth inhibition,> 50 fold
